PubChem BioAssay AID1159578, Peter MacCallum Cancer Centre – 2015
Aim: 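Genome-wide hunt for genes controlling movement of lymphatic endothelial cells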 (primary screen). Cells: human lymphatic endothelial cells. Knock-down reagent: siRNA pool against human genes, 40 nM. Time to read-out: 48 h after transfection. Read-out: 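High-content imaging of dye-stained cells in a scratch assay measures filled wound area and nuclei per well; duplicate means given as ratio to mock and robust z-score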. Reading the numbers: migration robust z-score: higher = faster migration into the scratch; nuclei per well: higher = more cells in the well. Hit rule: 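Migration changed when robust z exceeds 2 or falls below -2 and mean nuclei number is at least 3300; otherwise not called changed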. Meaning of the calls: active = migration changed; inactive = no migration change, or too few cells.
The whole screen tested about 18,000 reagents; below is a part drawn at random. Of all reagents, about 1,030 (5.7%) were called active. 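Inactive calls also include pools with fewer than 3300 nuclei, whose migration was not assessed.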 The raw values are shown without normalisation. Entries without a mark were called inactive. Not all columns of the deposit are shown. No sequences are given here.

FOXP2 (forkhead box P2) → migration robust z-score = 0.46; nuclei per well, duplicate mean = 6558
CDS1 (CDP-diacylglycerol synthase 1) → migration robust z-score = -1.56; nuclei per well, duplicate mean = 5934
ENOX1 (ecto-NOX disulfide-thiol exchanger 1) → migration robust z-score = -0.82; nuclei per well, duplicate mean = 5892
AGBL5 (AGBL carboxypeptidase 5) → migration robust z-score = -1.54; nuclei per well, duplicate mean = 4482
KANK1 (KN motif and ankyrin repeat domains 1) → migration robust z-score = -0.71; nuclei per well, duplicate mean = 4652
TMEM108 (transmembrane protein 108) → migration robust z-score = 1.25; nuclei per well, duplicate mean = 4678
DMPK (DM1 protein kinase) → migration robust z-score = -6.82; nuclei per well, duplicate mean = 1724
SLC7A9 → migration robust z-score = -0.18; nuclei per well, duplicate mean = 5640
CTNNAL1 (catenin alpha like 1) → migration robust z-score = 0.82; nuclei per well, duplicate mean = 5780
GJD4 (gap junction protein delta 4) → migration robust z-score = 0.05; nuclei per well, duplicate mean = 6092
NMUR1 (neuromedin U receptor 1) → migration robust z-score = -0.47; nuclei per well, duplicate mean = 5888
TERF1 (telomeric repeat binding factor 1) → migration robust z-score = -0.57; nuclei per well, duplicate mean = 6574

Copied from the entries so far, 2 entries:
CTNNAL1 (catenin alpha like 1) → migration robust z-score = 0.82; nuclei per well, duplicate mean = 5780
GJD4 (gap junction protein delta 4) → migration robust z-score = 0.05; nuclei per well, duplicate mean = 6092
